According to publication doi:10.1101/2023.05.02.539095 (bioRxiv, 2023):

Biological target: T1, C-terminally His-tagged MSMEG_0317 expressed from an integrative plasmid in M. smegmatis (M. smegmatis) (UniProt A0QP93)
T1 sequence: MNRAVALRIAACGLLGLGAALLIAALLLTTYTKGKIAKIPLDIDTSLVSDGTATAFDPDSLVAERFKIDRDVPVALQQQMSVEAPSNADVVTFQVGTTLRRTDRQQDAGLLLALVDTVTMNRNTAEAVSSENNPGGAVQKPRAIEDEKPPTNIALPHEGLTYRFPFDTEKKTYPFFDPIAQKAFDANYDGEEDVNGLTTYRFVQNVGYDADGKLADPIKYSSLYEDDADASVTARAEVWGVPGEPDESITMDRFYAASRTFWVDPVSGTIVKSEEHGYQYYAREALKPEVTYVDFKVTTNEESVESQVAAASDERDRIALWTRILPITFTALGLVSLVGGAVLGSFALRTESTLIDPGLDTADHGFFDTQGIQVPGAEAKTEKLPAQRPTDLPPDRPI
Assay: affinity purification with mass spectrometry

Row | Substance | binding
1 | Mycobacterial membrane protein Large 3 (MmpL3) (from UniProt A0QP27 1-1013) | no binding
2 | TmaT (putative acetyltransferase) | no binding

These are yes or no findings as the source states them, for the method shown. In cells and extracts the contact can be indirect. Here binding means that the protein was enriched with, or labelled near, the bait; the list need not be complete. A no says only that the protein was not detected with the bait. Where a sequence is shown, tags or fusion partners need not be part of it.
